Experimental data: the supplement of paper PMC12823440, “Inhibitors supercharge kinase turnover through native proteolytic circuits” (Nature, 2025)
Counter-ions that a name gives are not always drawn. The list shows a part of the results. The calls rarely recur for the same compound in another form.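 Kinases were expressed as nanoluciferase fusions in K562 cells and luminescence was read every 4 h between 2 and 18 h as percent of control, DMSO set to 100% and a positive control to 0%. A time point counts as decreased when the signal drops significantly (2 sigma). The hit call is the authors' own, does not follow from the count of time points alone, and its rule is not shown.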

The chains behind the UniProt entries cited, without tags or fusion partners. Where a name states a change or a piece, a line headed by the entry shows the natural chain unless it says otherwise.
UniProt Q9Y616: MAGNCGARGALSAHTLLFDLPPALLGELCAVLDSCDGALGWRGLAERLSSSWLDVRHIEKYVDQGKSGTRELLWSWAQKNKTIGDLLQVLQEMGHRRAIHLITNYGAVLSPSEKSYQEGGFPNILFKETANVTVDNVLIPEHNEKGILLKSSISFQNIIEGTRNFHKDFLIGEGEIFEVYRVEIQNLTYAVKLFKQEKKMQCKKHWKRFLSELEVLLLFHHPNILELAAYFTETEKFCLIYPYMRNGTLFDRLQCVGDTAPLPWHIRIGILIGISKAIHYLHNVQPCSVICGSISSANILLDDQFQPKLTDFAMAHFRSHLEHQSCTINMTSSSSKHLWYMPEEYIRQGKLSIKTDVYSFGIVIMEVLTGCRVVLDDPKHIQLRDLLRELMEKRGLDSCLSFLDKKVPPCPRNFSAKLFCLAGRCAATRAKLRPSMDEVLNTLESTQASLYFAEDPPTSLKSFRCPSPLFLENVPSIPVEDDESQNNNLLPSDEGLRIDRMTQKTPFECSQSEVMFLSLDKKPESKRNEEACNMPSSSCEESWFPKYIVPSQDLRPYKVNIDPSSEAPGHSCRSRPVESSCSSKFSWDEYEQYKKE

What follows are molecules tested against IRAK3 (UniProt Q9Y616) (assay: number of time points (of 5) at which kinase-Nluc abundance scored as decreased, DMSO-normalised (count); higher = more persistent destabilization). Details: K562; 2-18 h.

SMILES	number of time points
CCc1c(C(=O)NNC(=O)C(O)c2cc(F)cc(F)c2)ccc(O)c1C (stereo not drawn) (10 µM)	0
COc1cc2ncnc(Nc3ccc(Cl)cc3F)c2cc1OC (10 µM)	0
COc1cc(/C=C/C(=O)NCC(O)c2ccc(O)cc2)ccc1O (stereo not drawn) [N-Feruloyloctopamine] (2.5 µM)	0
NC(=O)c1nc(Nc2ccccc2)sc1NC(=O)C1CCCCC1 (10 µM)	0
O=c1cc(CN2CCOCC2)occ1OCCCCCSc1ccnc2cc(C(F)(F)F)ccc12 (10 µM)	0
O=C(O)CCC(=O)Nc1ccc(Br)cn1 [Bikinin] (10 µM)	0
CC[C@@H](Oc1nc(Oc2cc(C)cc(-c3cccc(CN)c3)c2)c(F)cc1F)C(=O)O (10 µM)	0
C[C@]1(O)CCN(c2nc(N3C[C@H](O)[C@@H](O)C3)cc(C(F)(F)F)c2C#N)C1 (10 µM)	0
COc1ccccc1-c1cc(Nc2cccc(CS(N)(=O)=O)c2)ncn1 (10 µM)	3
CC(=O)c1c(C)cc2cccc(O)c2c1O [Nepodin] (10 µM)	0
NC(=O)c1ccc2[nH]ccc2c1 (10 µM)	0
COc1cc2c(cc1OC)CN(S(=O)(=O)c1ccc(OC)c(N3CCN(C(=O)c4ccc(F)cc4C(F)(F)F)CC3)c1)CC2 (10 µM)	0
OCCn1cc(-c2ccc3c(c2)CC/C3=N\O)c(-c2ccncc2)n1 (10 µM)	0
C[C@@H]1CC[C@@H](Nc2nc(NC(C)(C)C)ncc2C(N)=O)C[C@H]1O (10 µM)	0
CCc1cc2c(cc1N1CCC(N3CCOCC3)CC1)C(C)(C)c1[nH]c3cc(C#N)ccc3c1C2=O [Alectinib] (10 µM)	0
COCCNc1nc2ccc(C#CC3(O)CCCCC3)cc2n1-c1ccnc(N)n1 (10 µM)	0
Cc1[nH]c(/C=C2\C(=O)Nc3ccccc32)c(C)c1CCC(=O)O [Orantinib] (10 µM)	0
Nc1cc(C(F)(F)F)c(-c2cc(N3CCOCC3)nc(N3CCOCC3)n2)cn1 [Buparlisib (Hydrochloride)] (2.5 µM)	0
CCN1CCN(Cc2ccc(Nc3ncc(F)c(-c4cc(F)c5nc(C)n(C(C)C)c5c4)n3)nc2)CC1 [Abemaciclib (methanesulfonate)] (10 µM)	0

SMILES	number of time points
Cc1ccc2cc(-c3c(C)ccc(C(=O)c4c(-c5ccccc5)n(C)n(-c5ccccc5)c4=O)c3N)ccc2n1 (2.5 µM)	0
FC(F)(c1ccc2ncccc2c1)c1nnc2ccc(-c3ccncc3)nn12 (10 µM)	0
O=C1N[C@@H](Cc2c[nH]c3ccccc23)C(=O)N2CCC[C@@H]12 [Brevianamide F] (10 µM)	0
Cc1nc2sccn2c(=O)c1CCN1CCC(=C(c2ccccc2)c2ccc(F)cc2)CC1 (10 µM)	0
O=c1[nH]c(=O)n([C@@H]2O[C@H](CO)[C@@H](O)[C@@H]2O)cc1/C=C/Br [Sorivudine] (10 µM)	0
COc1cc2nccc(Oc3ccc(NC(=O)NC4CC4)c(Cl)c3)c2cc1C(N)=O [Lenvatinib (mesylate)] (10 µM)	2
CN1C(=O)N[C@H](Cc2c[nH]c3c(Cl)cccc23)C1=O [Necrostatin 2] (10 µM)	0
CCN1CCN(Cc2ccc(Nc3ncc(F)c(-c4cc(F)c5nc(C)n(C(C)C)c5c4)n3)nc2)CC1 [Abemaciclib] (2 µM)	0
Cc1ccc2nc(NCCN)c3ncc(C)n3c2c1 (2.5 µM)	0
CNC(=O)c1c(F)cccc1Nc1nc(Nc2cc3c(cc2OC)CCN3C(=O)CN(C)C)nc2[nH]ccc12 (10 µM)	0
Cn1nccc1Nc1nccc(-c2ccn([C@H](CO)c3ccc(Cl)c(F)c3)c(=O)c2)n1 [Ravoxertinib hydrochloride] (10 µM)	0
CN(C)CCSSCCNC(=O)C1CCN(C(=O)CSc2ccc(Cl)cc2)CC1 (10 µM)	0
CNC(=O)c1cc(COc2nnc(Nc3ccc(Cl)cc3)c3ccoc23)ccn1 [Telatinib] (10 µM)	0
NCCNS(=O)(=O)c1cccc2c(Cl)cccc12 [A-3 (hydrochloride)] (10 µM)	0
O=C(Nc1ccc(CN2CCOCC2)cc1)c1ccc(-c2cccc(Cl)c2)o1 (10 µM)	0
CCN1CCN(Cc2ccc(-c3cc4c(N[C@H](C)c5ccccc5)ncnc4[nH]3)cc2)CC1 (2.5 µM)	2
COc1cccc(OC)c1C(=O)OCc1cc(O)ccc1O[C@@H]1O[C@H](CO)[C@@H](O)[C@H](O)[C@H]1O [Curculigoside] (10 µM)	0
Nc1ncnc2c1c(-c1ccc(Oc3ccccc3)cc1)nn2C1CCCC1 (2.5 µM)	0
CC#CC(=O)N1CC[C@@H](n2c(=O)n(-c3ccc(Oc4ccccc4)cc3)c3c(N)ncnc32)C1 [Tirabrutinib] (10 µM)	0

As entered above.
Under number of time points, O=C(Nc1ccc(CN2CCOCC2)cc1)c1ccc(-c2cccc(Cl)c2)o1 (10 µM) shows 0
Under number of time points, COc1cc2nccc(Oc3ccc(NC(=O)NC4CC4)c(Cl)c3)c2cc1C(N)=O [Lenvatinib (mesylate)] (10 µM) shows 2
